Experimental data: patent US20110287023A1
These are yes or no findings as the source states them, for the method shown. Some entries that bind do so weakly or less than the wild type.

The chains behind the UniProt entries cited, without tags or fusion partners. Residues count along the entry.
UniProt P63159: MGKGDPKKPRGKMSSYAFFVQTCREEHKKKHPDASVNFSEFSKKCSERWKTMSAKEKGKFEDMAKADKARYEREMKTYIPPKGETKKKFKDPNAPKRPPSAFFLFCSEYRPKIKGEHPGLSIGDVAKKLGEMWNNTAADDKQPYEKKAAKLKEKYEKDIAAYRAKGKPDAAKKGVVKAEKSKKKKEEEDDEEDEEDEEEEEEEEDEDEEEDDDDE
UniProt Q62151, residues 24-342: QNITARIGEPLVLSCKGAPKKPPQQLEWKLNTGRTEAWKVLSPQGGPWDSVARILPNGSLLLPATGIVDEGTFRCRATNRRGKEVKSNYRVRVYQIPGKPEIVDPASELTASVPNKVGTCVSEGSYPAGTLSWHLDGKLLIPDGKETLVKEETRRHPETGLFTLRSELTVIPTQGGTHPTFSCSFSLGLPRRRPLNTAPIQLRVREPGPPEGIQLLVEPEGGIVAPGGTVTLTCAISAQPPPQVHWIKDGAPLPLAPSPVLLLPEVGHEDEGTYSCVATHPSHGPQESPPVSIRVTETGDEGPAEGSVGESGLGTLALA
UniProt Q15109, residues 24-344: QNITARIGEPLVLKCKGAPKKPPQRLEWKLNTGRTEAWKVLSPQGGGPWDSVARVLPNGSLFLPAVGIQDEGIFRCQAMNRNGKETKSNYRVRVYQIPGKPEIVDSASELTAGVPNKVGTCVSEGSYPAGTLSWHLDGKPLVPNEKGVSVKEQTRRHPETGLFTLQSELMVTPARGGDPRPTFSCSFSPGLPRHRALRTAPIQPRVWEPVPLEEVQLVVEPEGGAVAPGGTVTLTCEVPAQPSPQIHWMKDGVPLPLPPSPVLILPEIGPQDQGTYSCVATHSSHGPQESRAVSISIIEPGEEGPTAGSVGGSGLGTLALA
UniProt P10103, residues 2-215: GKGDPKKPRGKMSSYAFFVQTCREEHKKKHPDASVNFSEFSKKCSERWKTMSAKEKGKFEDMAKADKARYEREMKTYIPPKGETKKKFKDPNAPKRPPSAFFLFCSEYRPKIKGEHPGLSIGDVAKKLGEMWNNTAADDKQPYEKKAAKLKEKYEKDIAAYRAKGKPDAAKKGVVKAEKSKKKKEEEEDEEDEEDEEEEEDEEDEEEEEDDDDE

How the values were obtained:
[1] = molecular target: recombinant rat HMGB-1 labelled with europium (rat) (UniProt P63159); assay: competition: 2 nM europium-labelled HMGB-1 binding to THP-1 cells in the presence of the titrated inhibitor, fluorescence (cps)
[2] = molecular target: mouse RAGE/Fc fusion protein (mouse) (UniProt Q62151); assay: ELISA
[3] = molecular target: mouse RAGE/Fc fusion protein (mouse) (UniProt Q62151); assay: ELISA (right panel): RAGE-Fc immobilized, HMGB1 titrated in the presence of 0.003 µM CpG-A
[4] = molecular target: mouse RAGE/Fc fusion protein (mouse) (UniProt Q62151); assay: ELISA on immobilized RAGE/Fc
[5] = molecular target: mouse RAGE/Fc fusion protein (mouse) (UniProt Q62151); assay: ELISA (left panel): RAGE/Fc immobilized ('Insoluble'), soluble complex of HMGB1 with biotin-labelled CpG titrated, detected by the biotin on CpG
[6] = molecular target: mouse RAGE/Fc fusion protein (mouse) (UniProt Q62151); assay: ELISA on immobilized RAGE/Fc, biotin CpG-A detected, FIG. 35
[7] = molecular target: mouse RAGE/Fc fusion protein (mouse) (UniProt Q62151); assay: ELISA (right panel): RAGE-Fc immobilized, HMGB1 titrated in the presence of 0.03 µM CpG-A
[8] = molecular target: mouse RAGE/Fc fusion protein (mouse) (UniProt Q62151); assay: ELISA (right panel): RAGE-Fc immobilized, HMGB1 titrated in the presence of 0.3 µM CpG-A
[9] = molecular target: mouse RAGE/Fc fusion protein (mouse) (UniProt Q62151); assay: ELISA on RAGE-Fc, FIG. 35
[10] = molecular target: mouse RAGE/Fc fusion protein (mouse) (UniProt Q62151); assay: ELISA (right panel): RAGE-Fc immobilized, HMGB1 titrated without CpG-A

Measured: binding

human RAGE-Fc fusion protein (from UniProt Q15109 24-344)
binds: [1]

complex of thymus HMGB1 with CpG-A DNA (from UniProt P10103 2-215)
not listed: [1] | [9] | [10]
binds: all other assays above

HMG1 purified from calf (bovine) thymus (from UniProt P10103 2-215)
binds: [9] | [10]
